In paper PMC12703938, “Positive modulation of sigma-1 receptor: a new weapon to mitigate disease progression in amyotrophic lateral sclerosis” (Translational Neurodegeneration, 2025):
These are yes or no findings as the source states them, for the method shown. Binding seen in cells or lysates may run through a third protein. Some binding calls cover weakened binding; strength is not graded here. For some assays here: Where a sequence is shown, tags or fusion partners need not be part of it.

Protein sequences, listed by entry. Tags and fused reporters are not part of them. Residues count along the entry.
UniProt P20029, residues 20-655: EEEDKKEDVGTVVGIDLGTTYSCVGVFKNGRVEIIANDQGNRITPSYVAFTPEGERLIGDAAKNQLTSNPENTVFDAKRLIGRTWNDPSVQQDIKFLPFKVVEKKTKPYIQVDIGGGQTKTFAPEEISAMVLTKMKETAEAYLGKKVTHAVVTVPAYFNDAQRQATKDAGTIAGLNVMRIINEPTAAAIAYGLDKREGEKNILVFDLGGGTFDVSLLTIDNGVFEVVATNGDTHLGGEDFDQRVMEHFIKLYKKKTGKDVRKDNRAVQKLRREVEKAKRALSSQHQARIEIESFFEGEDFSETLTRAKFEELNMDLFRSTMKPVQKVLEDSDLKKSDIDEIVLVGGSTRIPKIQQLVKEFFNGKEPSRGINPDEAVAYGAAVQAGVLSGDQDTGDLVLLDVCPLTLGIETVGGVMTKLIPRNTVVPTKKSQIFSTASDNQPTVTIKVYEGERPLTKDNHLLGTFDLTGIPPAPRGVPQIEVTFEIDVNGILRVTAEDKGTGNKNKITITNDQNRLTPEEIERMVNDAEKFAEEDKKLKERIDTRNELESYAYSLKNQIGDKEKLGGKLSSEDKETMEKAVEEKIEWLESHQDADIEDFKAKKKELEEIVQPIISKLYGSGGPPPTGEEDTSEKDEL

T1: Sigma-1 receptor tagged with YFP (S1R-YFP), O55242
T1 chain: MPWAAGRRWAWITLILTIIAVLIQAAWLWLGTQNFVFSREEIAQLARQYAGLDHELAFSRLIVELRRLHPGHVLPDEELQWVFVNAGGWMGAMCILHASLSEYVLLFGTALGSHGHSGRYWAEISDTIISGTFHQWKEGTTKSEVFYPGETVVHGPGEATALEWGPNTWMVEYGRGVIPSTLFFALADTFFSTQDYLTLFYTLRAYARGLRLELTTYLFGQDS


Columns and labels:
[1] = molecular target: Sigma-1 receptor tagged with YFP (S1R-YFP) (UniProt O55242); experiment: co-IP; S1R-KO N2a cells expressing YFP or S1R-YFP; CHAPS lysis buffer (50 mM Tris pH 7.4, 150 mM NaCl, 0.5% CHAPS); anti-GFP rabbit or mouse antibody or normal IgG on Dynabeads Protein G, overnight at 4 °C; western blot for BiP, Keap1, NRF2 and S1R
[2] = molecular target: T1, Sigma-1 receptor tagged with YFP …; experiment: as above; settings: remark: other sources report otherwise

binding [1]	binding [2]	Molecule
binds		Binding immunoglobulin Protein (BiP), endogenous in N2a cells (from UniProt P20029 20-655)
	no binding	Nuclear factor erythroid-2 related factor 2 (NRF2), endogenous in N2a cells, Q60795 1-597 (protein) MMDLELPPPGLQSQQDMDLIDILWRQDIDLGVSREVFDFSQRQKDYELEKQKKLEKERQEQLQKEQEKAFFAQFQLDEETGEFLPIQPAQHIQTDTSGSASYSQVAHIPKQDALYFEDCMQLLAETFPFVDDHESLALDIPSHAESSVFTAPHQAQSLNSSLEAAMTDLSSIEQDMEQVWQELFSIPELQCLNTENKQLADTTAVPSPEATLTEMDSNYHFYSSISSLEKEVGNCGPHFLHGFEDSFSSILSTDDASQLTSLDSNPTLNTDFGDEFYSAFIAEPSDGGSMPSSAAISQSLSELLDGTIEGCDLSLCKAFNPKHAEGTMEFNDSDSGISLNTSPSRASPEHSVESSIYGDPPPGFSDSEMEELDSAPGSVKQNGPKAQPAHSPGDTVQPLSPAQGHSAPMRESQCENTTKKEVPVSPGHQKAPFTKDKHSSRLEAHLTRDELRAKALHIPFPVEKIINLPVDDFNEMMSKEQFNEAQLALIRDIRRRGKNKVAAQNCRKRKLENIVELEQDLGHLKDEREKLLREKGENDRNLHLLKRRLSTLYLEVFSMLRDEDGKPYSPSEYSLQQTRDGNVFLVPKSKKPDTKKN
